Patent US12419871B2, “Biomolecules involved in Alzheimer's disease” (ELECTROPHORETICS LIMITED, priority 2015, dated 2025)

Experiment: TMTcalibrator quantification of regulated proteins in AD CSF versus control
Set-up: species or system human
Details: CSF of AD patient versus control; non-modified peptides of each protein summed for three control and three AD cases

| Molecule | Log2 AD/Control |
| --- | --- |
| Q8NFT8 (protein, UniProt Q8NFT8 1-737, looked up, full-length) MQPRRAQAPGAQLLPALALLLLLLGAGPRGSSLANPVPAAPLSAPGPCAAQPCRNGGVCTSRPEPDPQHPAPAGEPGYSCTCPAGISGANCQLVADPCASNPCHHGNCSSSSSSSSDGYLCICNEGYEGPNCEQALPSLPATGWTESMAPRQLQPVPATQEPDKILPRSQATVTLPTWQPKTGQKVVEMKWDQVEVIPDIACGNASSNSSAGGRLVSFEVPQNTSVKIRQDATASLILLWKVTATGFQQCSLIDGRSVTPLQASGGLVLLEEMLALGNNHFIGFVNDSVTKSIVALRLTLVVKVSTCVPGESHANDLECSGKGKCTTKPSEATFSCTCEEQYVGTFCEEYDACQRKPCQNNASCIDANEKQDGSNFTCVCLPGYTGELCQSKIDYCILDPCRNGATCISSLSGFTCQCPEGYFGSACEEKVDPCASSPCQNNGTCYVDGVHFTCNCSPGFTGPTCAQLIDFCALSPCAHGTCRSVGTSYKCLCDPGYHGLYCEEEYNECLSAPCLNAATCRDLVNGYECVCLAEYKGTHCELYKDPCANVSCLNGATCDSDGLNGTCICAPGFTGEECDIDINECDSNPCHHGGSCLDQPNGYNCHCPHGWVGANCEIHLQWKSGHMAESLTNMPRHSLYIIIGALCVAFILMLIILIVGICRISRIEYQGSSRPAYEEFYNCRSIDSEFSNAIASIRHARFGKKSRPAMYDVSPIAYEDYSPDDKPLVTLIKTKDL | 1.02 |
| Q9BPU6 (protein, UniProt Q9BPU6 1-564, looked up, full-length) MLANSASVRILIKGGKVVNDDCTHEADVYIENGIIQQVGRELMIPGGAKVIDATGKLVIPGGIDTSTHFHQTFMNATCVDDFYHGTKAALVGGTTMIIGHVLPDKETSLVDAYEKCRGLADPKVCCDYALHVGITWWAPKVKAEMETLVREKGVNSFQMFMTYKDLYMLRDSELYQVLHACKDIGAIARVHAENGELVAEGAKEALDLGITGPEGIEISRPEELEAEATHRVITIANRTHCPIYLVNVSSISAGDVIAAAKMQGKVVLAETTTAHATLTGLHYYHQDWSHAAAYVTVPPLRLDTNTSTYLMSLLANDTLNIVASDHRPFTTKQKAMGKEDFTKIPHGVSGVQDRMSVIWERGVVGGKMDENRFVAVTSSNAAKLLNLYPRKGRIIPGADADVVVWDPEATKTISASTQVQGGDFNLYENMRCHGVPLVTISRGRVVYENGVFMCAEGTGKFCPLRSFPDTVYKKLVQREKTLKVRGVDRTPYLGDVAVVVHPGKKEMGTPLADTPTRPVTRHGGMRDLHESSFSLSGSQIDDHVPKRASARILAPPGGRSSGIW | 0.82 |
| Q13217 (protein, UniProt Q13217 1-504, looked up, full-length) MVAPGSVTSRLGSVFPFLLVLVDLQYEGAECGVNADVEKHLELGKKLLAAGQLADALSQFHAAVDGDPDNYIAYYRRATVFLAMGKSKAALPDLTKVIQLKMDFTAARLQRGHLLLKQGKLDEAEDDFKKVLKSNPSENEEKEAQSQLIKSDEMQRLRSQALNAFGSGDYTAAIAFLDKILEVCVWDAELRELRAECFIKEGEPRKAISDLKAASKLKNDNTEAFYKISTLYYQLGDHELSLSEVRECLKLDQDHKRCFAHYKQVKKLNKLIESAEELIRDGRYTDATSKYESVMKTEPSIAEYTVRSKERICHCFSKDEKPVEAIRVCSEVLQMEPDNVNALKDRAEAYLIEEMYDEAIQDYETAQEHNENDQQIREGLEKAQRLLKQSQKRDYYKILGVKRNAKKQEIIKAYRKLALQWHPDNFQNEEEKKKAEKKFIDIAAAKEVLSDPEMRKKFDDGEDPLDAESQQGGGGNPFHRSWNSWQGFNPFSSGGPFRFKFHFN | 0.86 |
| Q9P0K9 (protein, UniProt Q9P0K9 1-293, looked up, full-length) MARPPRQHPGVWASLLLLLLTGPAACAASPADDGAGPGGRGPRGRARGDTGADEAVPRHDSSYGTFAGEFYDLRYLSEEGYPFPTAPPVDPFAKIKVDDCGKTKGCFRYGKPGCNAETCDYFLSYRMIGADVEFELSADTDGWVAVGFSSDKKMGGDDVMACVHDDNGRVRIQHFYNVGQWAKEIQRNPARDEEGVFENNRVTCRFKRPVNVPRDETIVDLHLSWYYLFAWGPAIQGSITRHDIDSPPASERVVSIYKYEDIFMPSAAYQTFSSPFCLLLIVALTFYLLMGTP | 1.48 |
| Q05639 (protein, UniProt Q05639 1-463, looked up, full-length) MGKEKTHINIVVIGHVDSGKSTTTGHLIYKCGGIDKRTIEKFEKEAAEMGKGSFKYAWVLDKLKAERERGITIDISLWKFETTKYYITIIDAPGHRDFIKNMITGTSQADCAVLIVAAGVGEFEAGISKNGQTREHALLAYTLGVKQLIVGVNKMDSTEPAYSEKRYDEIVKEVSAYIKKIGYNPATVPFVPISGWHGDNMLEPSPNMPWFKGWKVERKEGNASGVSLLEALDTILPPTRPTDKPLRLPLQDVYKIGGIGTVPVGRVETGILRPGMVVTFAPVNITTEVKSVEMHHEALSEALPGDNVGFNVKNVSVKDIRRGNVCGDSKSDPPQEAAQFTSQVIILNHPGQISAGYSPVIDCHTAHIACKFAELKEKIDRRSGKKLEDNPKSLKSGDAAIVEMVPGKPMCVESFSQYPPLGRFAVRDMRQTVAVGVIKNVEKKSGGAGKVTKSAQKAQKAGK | 0.68 |
| O00273 (protein, UniProt O00273 1-331, looked up, full-length) MEVTGDAGVPESGEIRTLKPCLLRRNYSREQHGVAASCLEDLRSKACDILAIDKSLTPVTLVLAEDGTIVDDDDYFLCLPSNTKFVALASNEKWAYNNSDGGTAWISQESFDVDETDSGAGLKWKNVARQLKEDLSSIILLSEEDLQMLVDAPCSDLAQELRQSCATVQRLQHTLQQVLDQREEVRQSKQLLQLYLQALEKEGSLLSKQEESKAAFGEEVDAVDTGISRETSSDVALASHILTALREKQAPELSLSSQDLELVTKEDPKALAVALNWDIKKTETVQEACERELALRLQQTQSLHSLRSISASKASPPGDLQNPKRARQDPT | −0.67 |
| Q08495 (protein, UniProt Q08495 1-405, looked up, full-length) MERLQKQPLTSPGSVSPSRDSSVPGSPSSIVAKMDNQVLGYKDLAAIPKDKAILDIERPDLMIYEPHFTYSLLEHVELPRSRERSLSPKSTSPPPSPEVWADSRSPGIISQASAPRTTGTPRTSLPHFHHPETSRPDSNIYKKPPIYKQRESVGGSPQTKHLIEDLIIESSKFPAAQPPDPNQPAKIETDYWPCPPSLAVVETEWRKRKASRRGAEEEEEEEDDDSGEEMKALRERQREELSKVTSNLGKMILKEEMEKSLPIRRKTRSLPDRTPFHTSLHQGTSKSSSLPAYGRTTLSRLQSTEFSPSGSETGSPGLQNGEGQRGRMDRGNSLPCVLEQKIYPYEMLVVTNKGRTKLPPGVDRMRLERHLSAEDFSRVFAMSPEEFGKLALWKRNELKKKASLF | 0.76 |
| P60981 (protein, UniProt P60981 1-165, looked up, full-length) MASGVQVADEVCRIFYDMKVRKCSTPEEIKKRKKAVIFCLSADKKCIIVEEGKEILVGDVGVTITDPFKHFVGMLPEKDCRYALYDASFETKESRKEELMFFLWAPELAPLKSKMIYASSKDAIKKKFQGIKHECQANGPEDLNRACIAEKLGGSLIVAFEGCPV | 0.93 |
